PubChem BioAssay AID504764 | Drosophila RNAi Screening Center – 2011
Assay: 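Knock-downs that raise or lower a Notch target reporter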 (primary screen). Cell system: Drosophila Kc167 cells. Knock-down reagent: long dsRNA against Drosophila genes. Duration: about 5 days (4 days dsRNA, then 24 h after transfection). Challenge: transfection of constitutively active membrane-tethered Notch lacking the extracellular domain, read 24 h later. Read-out: 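Light from a Notch-responsive E(spl)m3 luciferase reporter under active Notch, with control-promoter and no-Notch reporter wells to normalise; raw counts from paired wells a and b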. Direction: induced reporter light, run 1, well a and induced reporter light, run 1, well b: higher = more light from the Notch target reporter with active Notch; control promoter light, run 1, well a and control promoter light, run 1, well b: higher = more light from the viral control promoter (cell number, transfection, viability); uninduced reporter light, run 1, well a: higher = more light from the Notch target reporter without active Notch. Active means: 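Wells with low control signal or poorly matching duplicates excluded; duplicates averaged; per source plate, z beyond ±2 for induced/control log2 ratio or beyond ±1.8 for induced/uninduced marks a hit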. Calls: active = modifier hit (raised or lowered Notch signal); inactive = not a hit.
The screen tested about 22,000 reagents; below is a random part of those with a known target gene and a result. Of all reagents, 403 (1.9%) got an active call. 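Unnormalised raw counts per well; ratio z-scores behind the hit calls and whether each hit raises or lowers signal are not deposited.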 Names joined by + are all predicted targets of the reagent. Reagent sequences are not shown. Not given: the amount of reagent.

no.	predicted target	amplicon	induced reporter light, run 1, well a	induced reporter light, run 1, well b	control promoter light, run 1, well a	control promoter light, run 1, well b	uninduced reporter light, run 1, well a	Outcome
1	CG43894	DRSC10123	2.14e5	2.01e5	1.54e5	1.52e5	8850	inactive
2	CG4854	DRSC15663	1.97e5	1.89e5	2.03e5	2.10e5	13015	inactive
3	CG8067	DRSC07065	1.40e5	1.62e5	1.36e5	1.21e5	10465	inactive
4	Nct (Nicastrin)	DRSC16172	36200	37005	41725	38125	3620	inactive
5	phu (phurba tashi)	DRSC16390	86445	77055	81685	88360	6330	inactive
6	HDAC4 (Histone deacetylase 4)	DRSC19780	1.21e5	1.35e5	1.85e5	1.59e5	8900	inactive
7	Or13a (Odorant receptor 13a)	DRSC20265	72180	67185	93490	65230	11250	inactive
8	Mtr3	DRSC10953	43535	30925	28615	24685	4428	inactive
9	ttm2 (tiny tim 2)	DRSC08268	1.67e5	1.33e5	2.28e5	2.77e5	9932	inactive
10	l(2)gl (lethal (2) giant larvae)	DRSC00825	1.85e5	1.63e5	2.67e5	3.08e5	13920	inactive
11	CG10444	DRSC05990	81995	65620	1.44e5	1.74e5	6488	inactive
12	CG32603	DRSC19409	1.14e5	1.04e5	1.23e5	97880	15275	inactive
13	CG32603	DRSC21586						inactive
14	CCDC53 (Coiled-coil domain containing 53)	DRSC03056	1.40e5	1.60e5	89995	1.20e5	19205	inactive
15	CG10376	DRSC02049	2.53e5	2.56e5	2.10e5	1.94e5	20360	inactive
16	Fim (Fimbrin)	DRSC20243	95045	1.16e5	87630	52230	9328	inactive
17	CG9759	DRSC16558	1.73e5	2.14e5	1.22e5	1.21e5	12500	inactive
18	ppk30 (pickpocket 30)	DRSC15302	1.38e5	1.30e5	1.67e5	1.35e5	11415	inactive
19	CG17760	DRSC06694	1.20e5	1.35e5	1.68e5	1.66e5	12670	inactive
20	scyl (scylla)	DRSC11392	1.52e5	1.34e5	2.07e5	2.30e5	9500	inactive
21	CG7741	DRSC07035	1.22e5	1.50e5	2.48e5	2.11e5	11220	active
22	CG12990	DRSC19510	42220	54920	56915	36530	8665	inactive
23	unc-45 (uncoordinated 45)	DRSC15449	1.06e5	1.07e5	1.28e5	79555	8545	inactive
24	MstProx + Mst84Da	DRSC12597	1.01e5	95980	77980	99035	4820	inactive
25	acs (arcus)	DRSC08185	1.21e5	1.07e5	1.31e5	1.45e5	7410	inactive
26	Fur2 (Furin 2)	DRSC19817	55905	45340	55420	61160	7410	inactive
27	sc (scute)	DRSC18830	99530	74340	1.35e5	1.24e5	9260	inactive
28	MFS18 (Major Facilitator Superfamily Transporter 18)	DRSC00452	2.31e5	2.28e5	2.17e5	2.61e5	18555	inactive
29	Dp1 (Dodeca-satellite-binding protein 1)	DRSC07403	85785	93360	1.35e5	1.25e5	6390	inactive
30	mEFTu1 (mitochondrial translation elongation factor Tu 1)	DRSC06959	1.06e5	1.02e5	1.05e5	96280	7835	inactive
31	CG11912	DRSC00332	1.72e5	1.94e5	2.05e5	2.30e5	17455	inactive
32	CG40198	DRSC21068	62585	71920	83435	95825	6110	inactive
33	opm (opossum)	DRSC20141	1.05e5	90315	1.30e5	1.15e5	5505	inactive
34	tgo (tango)	DRSC17077	1.05e5	1.08e5	48360	48165	9720	inactive
35	CG17196	DRSC15189	1.74e5	1.64e5	2.33e5	2.36e5	17335	inactive
36	CG14892	DRSC15014	2.51e5	2.74e5	2.32e5	2.82e5	18140	inactive
37	TpnC73F (Troponin C at 73F)	DRSC11307	1.61e5	1.48e5	2.42e5	1.82e5	6325	inactive
38	CG3556	DRSC18309	1.83e5	1.85e5	2.37e5	2.36e5	13738	inactive
39	CG17191	DRSC15185	1.56e5	1.12e5	1.70e5	1.62e5	14145	inactive
40	CG2915	DRSC06842	1.40e5	1.31e5	1.45e5	1.22e5	11700	inactive
41	CG32269 + CG32270	DRSC08195	1.19e5	1.14e5	2.19e5	1.49e5	4675	inactive
42	CG30380	DRSC05069	71605	71700	96920	90105	3810	inactive
43	rho-6 (rhomboid-6)	DRSC02588	1.44e5	1.56e5	1.29e5	1.22e5	12370	inactive
44	CG14325	DRSC14804	2.30e5	2.10e5	2.24e5	2.13e5	18860	inactive
45	CkIIalpha (casein kinase IIalpha)	DRSC11946	32800	34255	36750	27285	1860	inactive
46	EDTP (Egg-derived tyrosine phosphatase)	DRSC07409	95950	89040	1.04e5	84720	8628	inactive
47	Def (Defensin)	DRSC07398	1.72e5	1.59e5	1.93e5	2.15e5	13415	inactive
48	REG (Proteasome regulator gamma)	DRSC20273	1.03e5	1.00e5	1.73e5	1.77e5	8050	inactive
49	CG42809 + CG42810	DRSC02532	95500	1.08e5	1.42e5	1.17e5	10155	inactive
50	CG42809 + CG42810	DRSC02533	1.27e5	1.37e5	1.53e5	1.57e5	9985	inactive
